# From doi:10.1101/2020.05.02.073957
# Sequences of proteins named here, by UniProt entry; tags and fusion partners are left off.
# UniProt P35293: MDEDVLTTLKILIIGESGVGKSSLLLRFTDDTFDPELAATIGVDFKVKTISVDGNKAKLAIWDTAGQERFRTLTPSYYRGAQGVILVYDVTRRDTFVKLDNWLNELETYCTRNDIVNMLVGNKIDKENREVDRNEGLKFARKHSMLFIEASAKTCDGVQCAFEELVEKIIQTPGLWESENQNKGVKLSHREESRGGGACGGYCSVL
# UniProt Q9CZW4: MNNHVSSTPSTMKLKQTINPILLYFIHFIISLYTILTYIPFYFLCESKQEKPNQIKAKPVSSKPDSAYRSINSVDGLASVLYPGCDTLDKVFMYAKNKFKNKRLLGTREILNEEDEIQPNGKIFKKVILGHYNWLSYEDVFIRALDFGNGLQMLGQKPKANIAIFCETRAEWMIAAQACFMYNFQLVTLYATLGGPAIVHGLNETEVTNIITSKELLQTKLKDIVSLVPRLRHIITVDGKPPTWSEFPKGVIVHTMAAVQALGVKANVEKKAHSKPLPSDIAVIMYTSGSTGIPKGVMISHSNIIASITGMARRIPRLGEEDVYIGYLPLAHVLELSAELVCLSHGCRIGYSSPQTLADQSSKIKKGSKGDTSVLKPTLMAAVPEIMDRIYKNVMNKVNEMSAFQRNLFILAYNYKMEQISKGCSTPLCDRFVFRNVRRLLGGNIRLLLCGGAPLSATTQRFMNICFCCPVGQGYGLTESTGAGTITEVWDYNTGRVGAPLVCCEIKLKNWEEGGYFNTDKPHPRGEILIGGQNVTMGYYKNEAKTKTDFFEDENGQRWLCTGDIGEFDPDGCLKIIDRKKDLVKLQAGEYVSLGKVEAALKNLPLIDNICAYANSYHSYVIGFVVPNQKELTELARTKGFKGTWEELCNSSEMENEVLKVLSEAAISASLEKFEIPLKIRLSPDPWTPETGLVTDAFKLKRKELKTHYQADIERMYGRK
# Results are given in words; binding and its absence hold for the method and conditions named. In cells and extracts the contact can be indirect. Some entries that bind do so weakly or less than the wild type. For some assays here: Tags and fused reporters may be left off the sequences shown.
# B1: perilipin 2 (PLIN2), endogenous in C2C12 lipid droplets (protein, UniProt P43883 1-425)
# chain: MAAAVVDPQQSVVMRVANLPLVSSTYDLVSSAYVSTKDQYPYLRSVCEMAEKGVKTVTSAAMTSALPIIQKLEPQIAVANTYACKGLDRMEERLPILNQPTSEIVASARGAVTGAKDVVTTTMAGAKDSVASTVSGVVDKTKGAVTGSVERTKSVVNGSINTVLGMVQFMNSGVDNAITKSELLVDQYFPLTQEELEMEAKKVEGFDMVQKPSNYERLESLSTKLCSRAYHQALSRVKEAKQKSQETISQLHSTVHLIEFARKNMHSANQKIQGAQDKLYVSWVEWKRSIGYDDTDESHCVEHIESRTLAIARNLTQQLQTTCQTVLVNAQGLPQNIQDQAKHLGVMAGDIYSVFRNAASFKEVSDGVLTSSKGQLQKMKESLDEVMDYFVNNTPLNWLVGPFYPQSTEVNKASLKVQQSEVKAQ
# B2: full length GFP-PLIN2 (GFP-PLIN2-FL) (protein, UniProt P43883 1-425)
# chain: B1 chain
# B3: GFP-PLIN2-251-425 (domain or fragment, UniProt P43883 251-425)
# chain: LHSTVHLIEFARKNMHSANQKIQGAQDKLYVSWVEWKRSIGYDDTDESHCVEHIESRTLAIARNLTQQLQTTCQTVLVNAQGLPQNIQDQAKHLGVMAGDIYSVFRNAASFKEVSDGVLTSSKGQLQKMKESLDEVMDYFVNNTPLNWLVGPFYPQSTEVNKASLKVQQSEVKAQ
# B4: PLIN2-370-425 (domain or fragment, UniProt P43883 370-425)
# chain: TSSKGQLQKMKESLDEVMDYFVNNTPLNWLVGPFYPQSTEVNKASLKVQQSEVKAQ
# B5: GFP-PLIN2-1-251 (domain or fragment, UniProt P43883 1-251)
# chain: MAAAVVDPQQSVVMRVANLPLVSSTYDLVSSAYVSTKDQYPYLRSVCEMAEKGVKTVTSAAMTSALPIIQKLEPQIAVANTYACKGLDRMEERLPILNQPTSEIVASARGAVTGAKDVVTTTMAGAKDSVASTVSGVVDKTKGAVTGSVERTKSVVNGSINTVLGMVQFMNSGVDNAITKSELLVDQYFPLTQEELEMEAKKVEGFDMVQKPSNYERLESLSTKLCSRAYHQALSRVKEAKQKSQETISQL
# Tests used:
# Test in all cases: co-IP
# [1] = target: T1, FLAG-PLIN2 (overexpressed in C2C12 cells) (mouse) (UniProt P43883)
# T1 sequence: B1 chain
# [2] = target: FLAG-Rab18 (overexpressed in C2C12 cells) (mouse) (UniProt P35293)
# [3] = target: FLAG-Rab18 (transfected in HEK293A cells) (mouse) (UniProt P35293)
Molecule,binding [3],other results
"Rab18, endogenous in C2C12 lipid droplets (from UniProt P35293 1-206)",,binding [1]: binds
"acyl-CoA synthetase long-chain family member 3 (ACSL3), endogenous in C2C12 lipid droplets (from UniProt Q9CZW4 1-720) (enzyme)",,binding [2]: binds
B1,,binding [2]: binds
B2,binds,
B3,binds,
B4,binds,
"PLNWLVGPFYPQSTEVNKASLKVQQSEVKAQ (domain or fragment, UniProt P43883 395-425) [PLIN2-395-425]",binds,
B5,no binding,
